Measurements as given in US20050085420A1, “Method of modulating apoptosis and compositions thereof” (priority 2003, published 2005).
No constants are given. Whether binding was seen depends on the method and setting. Some entries that bind do so weakly or less than the wild type. Sequences can lack the tags named with a protein.

Protein sequences, listed by entry. Tags and fused reporters are not part of them. Residues count along the entry.
UniProt P70444, residues 60-195: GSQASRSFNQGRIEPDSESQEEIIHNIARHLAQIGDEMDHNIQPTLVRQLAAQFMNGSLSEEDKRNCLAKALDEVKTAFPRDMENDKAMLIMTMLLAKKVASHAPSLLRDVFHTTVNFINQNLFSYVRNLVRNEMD

Legend:
[1] = biological target: T1, N-terminal HA-tagged VDAC2 (murine, UniProt Q60930 1-295); assay: anti-HA immunoprecipitation, immunoblot (FIG. 9 legend)
T1 construct: also called HA-VDAC2; hemagglutinin (HA)-tagged version of VDAC2; not shown: N-terminal HA tag
T1 sequence (looked up): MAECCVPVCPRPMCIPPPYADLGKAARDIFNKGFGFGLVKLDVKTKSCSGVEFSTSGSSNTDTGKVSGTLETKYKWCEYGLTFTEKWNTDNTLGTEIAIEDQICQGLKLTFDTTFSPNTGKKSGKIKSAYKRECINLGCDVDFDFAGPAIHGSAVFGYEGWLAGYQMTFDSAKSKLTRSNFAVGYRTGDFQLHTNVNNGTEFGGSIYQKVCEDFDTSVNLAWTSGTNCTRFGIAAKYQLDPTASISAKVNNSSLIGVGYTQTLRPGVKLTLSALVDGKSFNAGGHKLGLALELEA

[2] = biological target: T1, N-terminal HA-tagged VDAC2; assay: anti-HA immunoprecipitation in 1% CHAPS from vdac1 -/-, vdac3 -/- fibroblast mitochondria, anti-BID immunoblot

With “tBID, wild-type (p15 tBID, the activated form of BID) (from UniProt P70444 60-195)” as the substance, how does the binding [1] read?
The binding was “binds”.

And the binding [2]?
Its binding is “binds”.
